Measurements reported in paper PMC12445344, “Influence of Calcium Ions on the Membrane Binding of S100B Protein” (Langmuir, 2025).
No constants are given. Whether binding was seen depends on the method and setting.

Target: S100B protein (human) (UniProt P04271)
Experiment: condition: only after extensive dialysis of 1 mg/mL protein against deionized water at pH 7 (low-salt S100B); native gel or EMSA; Coomassie-stained 16% native gel; low-salt S100B, 1 mg/mL protein solution extensively dialysed against deionized water at pH 7; both purified

- binding: no binding
B1: S100B protein (natural protein, human)
chain: SELEKAMVALIDVFHQYSGREGDKHKLKKSELKELINNELSHFLEEIKEQEVVDKVMETLDNDGDGECDFQEFMAFVAMVTTACHEFFEHE
notes: S100B, Homo sapiens, UniProt P04271; Gene carried in the pETDuet-1 vector; The protein is a homodimer as purified; the monomer was obtained by extensive dialysis against deionized water; also called dimeric S100B; monomeric S100B; source: E. coli BL21-CodonPlus (DE3)-RIL, purified (ammonium sulfate, HiTrap Q XL anion exchange)
